The chains behind the UniProt entries cited, without tags or fusion partners. Where a name states a change or a piece, a line headed by the entry shows the natural chain unless it says otherwise.
UniProt O14578: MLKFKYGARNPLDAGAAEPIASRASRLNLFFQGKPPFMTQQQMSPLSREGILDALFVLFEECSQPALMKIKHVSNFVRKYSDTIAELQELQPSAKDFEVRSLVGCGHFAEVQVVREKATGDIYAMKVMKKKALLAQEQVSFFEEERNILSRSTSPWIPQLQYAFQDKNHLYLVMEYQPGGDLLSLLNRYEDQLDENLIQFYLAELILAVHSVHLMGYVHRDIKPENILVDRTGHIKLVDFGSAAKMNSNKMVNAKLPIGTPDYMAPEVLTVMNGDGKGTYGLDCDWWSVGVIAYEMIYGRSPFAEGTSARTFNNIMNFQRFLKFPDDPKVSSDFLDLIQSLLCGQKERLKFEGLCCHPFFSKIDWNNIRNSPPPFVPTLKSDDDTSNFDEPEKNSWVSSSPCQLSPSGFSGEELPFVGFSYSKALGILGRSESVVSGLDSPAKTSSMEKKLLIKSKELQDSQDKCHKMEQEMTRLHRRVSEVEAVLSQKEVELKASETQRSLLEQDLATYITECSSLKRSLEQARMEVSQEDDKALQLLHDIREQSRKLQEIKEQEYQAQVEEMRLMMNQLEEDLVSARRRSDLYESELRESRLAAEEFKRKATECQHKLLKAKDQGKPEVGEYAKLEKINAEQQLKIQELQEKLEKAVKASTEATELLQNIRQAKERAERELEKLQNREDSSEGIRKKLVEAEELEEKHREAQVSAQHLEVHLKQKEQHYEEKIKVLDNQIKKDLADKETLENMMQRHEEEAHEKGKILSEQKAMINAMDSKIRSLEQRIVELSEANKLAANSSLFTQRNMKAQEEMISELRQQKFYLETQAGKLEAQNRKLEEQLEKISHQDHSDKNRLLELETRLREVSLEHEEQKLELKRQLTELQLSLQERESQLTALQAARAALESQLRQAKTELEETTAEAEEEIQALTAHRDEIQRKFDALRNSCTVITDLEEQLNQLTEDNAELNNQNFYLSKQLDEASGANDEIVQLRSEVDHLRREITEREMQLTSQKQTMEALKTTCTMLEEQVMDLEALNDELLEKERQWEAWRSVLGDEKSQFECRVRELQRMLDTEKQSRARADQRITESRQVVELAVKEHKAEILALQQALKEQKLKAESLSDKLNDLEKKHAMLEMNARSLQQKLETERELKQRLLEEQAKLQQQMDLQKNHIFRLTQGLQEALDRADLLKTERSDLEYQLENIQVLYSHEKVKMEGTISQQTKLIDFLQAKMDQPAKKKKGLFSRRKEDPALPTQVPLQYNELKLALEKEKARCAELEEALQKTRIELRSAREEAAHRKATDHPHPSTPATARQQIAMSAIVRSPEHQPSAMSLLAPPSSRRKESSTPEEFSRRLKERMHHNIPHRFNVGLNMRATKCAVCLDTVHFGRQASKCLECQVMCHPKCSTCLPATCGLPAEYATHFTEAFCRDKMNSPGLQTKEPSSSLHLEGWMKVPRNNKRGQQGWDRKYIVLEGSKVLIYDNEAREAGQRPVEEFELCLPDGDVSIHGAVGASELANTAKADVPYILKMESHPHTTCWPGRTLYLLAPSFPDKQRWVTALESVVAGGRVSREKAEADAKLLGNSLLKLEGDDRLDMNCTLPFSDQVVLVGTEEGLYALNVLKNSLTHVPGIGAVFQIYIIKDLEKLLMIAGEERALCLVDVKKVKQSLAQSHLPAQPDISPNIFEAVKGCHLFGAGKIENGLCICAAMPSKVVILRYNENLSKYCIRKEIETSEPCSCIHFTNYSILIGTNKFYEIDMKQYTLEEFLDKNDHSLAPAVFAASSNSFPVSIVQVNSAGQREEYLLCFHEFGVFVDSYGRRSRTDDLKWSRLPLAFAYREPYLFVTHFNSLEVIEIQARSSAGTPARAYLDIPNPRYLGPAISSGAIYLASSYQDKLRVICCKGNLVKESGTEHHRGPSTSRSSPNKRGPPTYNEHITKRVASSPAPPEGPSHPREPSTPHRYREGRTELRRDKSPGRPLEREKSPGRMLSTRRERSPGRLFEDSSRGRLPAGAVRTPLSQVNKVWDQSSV
UniProt Q96GD4: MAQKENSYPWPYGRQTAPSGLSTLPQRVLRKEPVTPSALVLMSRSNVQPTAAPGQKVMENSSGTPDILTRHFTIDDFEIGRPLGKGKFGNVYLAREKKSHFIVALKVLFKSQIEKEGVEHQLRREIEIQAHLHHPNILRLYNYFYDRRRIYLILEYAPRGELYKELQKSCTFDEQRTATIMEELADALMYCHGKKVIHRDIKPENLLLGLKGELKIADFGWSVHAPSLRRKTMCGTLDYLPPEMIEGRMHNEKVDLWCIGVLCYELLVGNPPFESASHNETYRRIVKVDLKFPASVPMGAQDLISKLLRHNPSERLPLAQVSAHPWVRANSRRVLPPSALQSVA
UniProt Q15058: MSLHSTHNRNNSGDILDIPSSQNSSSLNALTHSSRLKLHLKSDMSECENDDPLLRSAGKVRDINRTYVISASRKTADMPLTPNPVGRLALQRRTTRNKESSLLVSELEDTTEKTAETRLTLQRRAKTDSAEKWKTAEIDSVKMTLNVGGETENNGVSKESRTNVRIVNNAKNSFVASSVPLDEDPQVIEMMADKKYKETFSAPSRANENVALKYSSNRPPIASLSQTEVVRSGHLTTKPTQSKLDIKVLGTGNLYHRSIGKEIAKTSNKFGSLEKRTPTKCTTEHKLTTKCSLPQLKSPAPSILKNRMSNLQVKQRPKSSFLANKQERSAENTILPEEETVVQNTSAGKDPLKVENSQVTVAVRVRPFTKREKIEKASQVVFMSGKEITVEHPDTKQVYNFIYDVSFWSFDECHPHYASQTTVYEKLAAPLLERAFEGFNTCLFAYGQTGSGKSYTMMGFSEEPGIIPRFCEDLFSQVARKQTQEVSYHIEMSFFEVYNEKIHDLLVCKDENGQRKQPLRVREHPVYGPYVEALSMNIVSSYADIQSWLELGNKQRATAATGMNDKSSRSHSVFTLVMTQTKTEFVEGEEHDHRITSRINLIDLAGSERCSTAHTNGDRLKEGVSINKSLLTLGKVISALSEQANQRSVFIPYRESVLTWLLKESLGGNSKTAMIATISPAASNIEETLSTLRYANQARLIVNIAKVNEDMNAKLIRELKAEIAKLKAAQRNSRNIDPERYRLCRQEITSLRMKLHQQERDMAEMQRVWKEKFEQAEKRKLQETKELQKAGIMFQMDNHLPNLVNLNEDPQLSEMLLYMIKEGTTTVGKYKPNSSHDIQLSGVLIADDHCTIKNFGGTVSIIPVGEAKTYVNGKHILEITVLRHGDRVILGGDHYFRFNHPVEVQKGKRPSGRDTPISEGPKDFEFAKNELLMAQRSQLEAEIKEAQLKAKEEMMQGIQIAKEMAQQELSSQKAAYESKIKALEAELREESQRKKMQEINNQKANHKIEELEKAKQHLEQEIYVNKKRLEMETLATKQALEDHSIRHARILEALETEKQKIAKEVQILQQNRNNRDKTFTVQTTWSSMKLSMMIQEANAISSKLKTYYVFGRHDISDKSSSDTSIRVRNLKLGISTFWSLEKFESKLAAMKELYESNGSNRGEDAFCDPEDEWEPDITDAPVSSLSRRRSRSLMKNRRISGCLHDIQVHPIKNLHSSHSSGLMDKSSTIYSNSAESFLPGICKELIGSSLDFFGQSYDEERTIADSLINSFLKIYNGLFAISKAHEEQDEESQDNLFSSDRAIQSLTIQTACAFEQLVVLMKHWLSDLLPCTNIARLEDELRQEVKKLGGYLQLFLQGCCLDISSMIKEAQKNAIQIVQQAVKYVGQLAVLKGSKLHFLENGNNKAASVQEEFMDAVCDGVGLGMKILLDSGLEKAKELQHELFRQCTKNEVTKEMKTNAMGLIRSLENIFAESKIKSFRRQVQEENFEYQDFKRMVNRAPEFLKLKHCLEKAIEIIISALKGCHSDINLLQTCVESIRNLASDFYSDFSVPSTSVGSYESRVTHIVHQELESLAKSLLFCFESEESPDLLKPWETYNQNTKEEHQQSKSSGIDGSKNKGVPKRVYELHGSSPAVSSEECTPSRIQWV

In doi:10.1101/2025.08.25.672096 (bioRxiv, 2025):

B1: MKLP1/KIF23 (protein, UniProt Q02241 1-960)
chain: MKSARAKTPRKPTVKKGSQTNLKDPVGVYCRVRPLGFPDQECCIEVINNTTVQLHTPEGYRLNRNGDYKETQYSFKQVFGTHTTQKELFDVVANPLVNDLIHGKNGLLFTYGVTGSGKTHTMTGSPGEGGLLPRCLDMIFNSIGSFQAKRYVFKSNDRNSMDIQCEVDALLERQKREAMPNPKTSSSKRQVDPEFADMITVQEFCKAEEVDEDSVYGVFVSYIEIYNNYIYDLLEEVPFDPIKPKPPQSKLLREDKNHNMYVAGCTEVEVKSTEEAFEVFWRGQKKRRIANTHLNRESSRSHSVFNIKLVQAPLDADGDNVLQEKEQITISQLSLVDLAGSERTNRTRAEGNRLREAGNINQSLMTLRTCMDVLRENQMYGTNKMVPYRDSKLTHLFKNYFDGEGKVRMIVCVNPKAEDYEENLQVMRFAEVTQEVEVARPVDKAICGLTPGRRYRNQPRGPVGNEPLVTDVVLQSFPPLPSCEILDINDEQTLPRLIEALEKRHNLRQMMIDEFNKQSNAFKALLQEFDNAVLSKENHMQGKLNEKEKMISGQKLEIERLEKKNKTLEYKIEILEKTTTIYEEDKRNLQQELETQNQKLQRQFSDKRRLEARLQGMVTETTMKWEKECERRVAAKQLEMQNKLWVKDEKLKQLKAIVTEPKTEKPERPSRERDREKVTQRSVSPSPVPLSSNYIAQISNGQQLMSQPQLHRRSNSCSSISVASCISEWEQKIPTYNTPLKVTSIARRRQQEPGQSKTCIVSDRRRGMYWTEGREVVPTFRNEIEIEEDHCGRLLFQPDQNAPPIRLRHRRSRSAGDRWVDHKPASNMQTETVMQPHVPHAITVSVANEKALAKCEKYMLTHQELASDGEIETKLIKGDIYKTRGGGQSVQFTDIETLKQESPNGSRKRRSSTVAPAQPDGAESEWTDVETRCSVAVEMRAGSQLGPGYQHHAQPKRKKP

Target: GFP-tagged Citron kinase (CIT-K) S699D, phospho-mimetic mutant (human) (UniProt O14578)
Assay: co-IP

Molecule	binding
Aurora B kinase (AURKB) (from UniProt Q96GD4 1-344)	binds
KIF14 (from UniProt Q15058 1-1648)	binds
B1	binds

Results are given in words; binding and its absence hold for the method and conditions named. Binding seen in cells or lysates may run through a third protein. Binding calls can cover weak binding; strength is not graded here.
